Record: PubChem BioAssay AID1259424 (University of Nebraska Medical Center, 2018)
Assay: 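Seek colon cancer survival genes behaving like KSR1, using a six-gene signature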 (primary screen). Cells: human HCT116 colon cancer cells. Reagent: siRNA pool against human genes, 50 nM. Detection: 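Log2 levels of six mRNAs (branched-DNA multiplex), adjusted by two reference genes and the non-targeting median, then scored against the average KSR1 knockdown pattern as Pearson r and euclidean distance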. Scale: mean correlation with KSR1 profile: higher = expression change more like KSR1 knockdown.
Here is one part, drawn at random, of about 14,000 reagents tested. 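Higher correlation or smaller distance means closer resemblance to KSR1 loss; control wells, including KSR1 knockdowns, recur on many plates.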 A reagent listed more than once was tested more than once; the source does not tell the runs apart. Not all columns of the deposit are shown. Not stated in the record: the time to read-out.

Gene | mean correlation with KSR1 profile
PTTG1IP | -0.108
PDCD7 | -0.391
GNPTG | -0.0519
COL4A5 | -0.606
NTMT1 | 0.406
TRAK2 | 0.0361
LRRC23 | -0.198
C1QL1 | 0.449
FOXE1 | 0.305
FOXE1 | -0.167
TMEM39B | 0.216
LAMP2 | 0.324
TMED10 | -0.354
SLC22A1 | 0.66
TMC5 | 0.285
ZNF20 | 0.634
RBBP7 | 0.167
RNF6 | 0.61
GRAMD1C | -0.246
NMNAT1 | -0.276
LTB4R2 | 0.381
CD38 | 0.569
GLP2R | 0.762
TBXT | 0.495
B9D2 | 0.629
PTK6 | 0.409
NR4A1 | -0.244
CD37 | 0.0185
CCDC90B | 0.0245
DNASE2B | -0.262
LMO2 | -0.116
GPR55 | 0.8
SLU7 | -0.341
POLR2E | -0.753
